Hit rate of the full screen: of about 400,000 compounds, about 13,000 (3.2%) were called active. The inconclusive results got no clear call from the source; some entries with a clear call stand among them for comparison. The call rests on the fitted dose curve; in most records, active means well fitted cell-killing curve with a large enough effect; inconclusive means small, poorly fitted or top-dose-only effect, or effect the other way; inactive means flat fitted curve, though single readings scatter. Where the call is inconclusive, the potency comes from a doubtful curve fit.
Assay: qHTS assay for MDR1-selective chemotherapeutics: Primary screen using the drug-selected MDR subline cells KB-V1; further: nearly all actives have a fitted effect of over 60% in size
Settings: KB-V1 MDR cells viability, CellTiter-Glo, 72 h; activity change, negative = cytotoxicity: at 46.1 µM (top of the series)
Summary of the method: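 Luminescent ATP read-out (CellTiter-Glo, 10 min) measures survival of drug-selected KB-V1 MDR cells after 72 h, 37 degrees C compound exposure. Medium: phenol-red-free DMEM, 10% FBS. Values from fitted concentration-response curves.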
On the % scale 0 is the no-effect control and ±100 the full control effect; potency means the concentration at half of the fitted maximal effect.

Row | Compound | Potency | activity change, negative = cytotoxicity
1 | COc1cccc(NC(=O)NCc2ccc3c(c2)CCN3C(=O)c2ccccc2)c1 | inconclusive: 2.59 µM [cytotoxic, partial curve, poor fit] | 
2 | Cc1ccc2[nH]c(=O)c3cc(C(=O)N4CCN(c5ccccc5)CC4)sc3c2c1 | inconclusive: 23.1 µM [rising, single point] | 
3 | CCCCCOc1ccc(CN2CCOCC2)cc1Cl |  | inactive: -16.8%
4 | Cc1[nH]n(-c2ccc([N+](=O)[O-])cc2)c(=O)c1C=NCCN1CCN(C(=O)C(C)C)CC1 | inconclusive: 3.26 µM [cytotoxic, full curve] | 
5 | COc1ccc(S(=O)(=O)NC(C)C)cc1C(=O)N1CCOCC1 |  | inactive: -2.54%
6 | C/C(=N/Nc1ccc(C(=O)O)cc1)c1ccc(O)c(O)c1O |  | inactive: 11.6%
7 | O=C(NNC(=O)c1ncc(Cl)c(Cl)c1Cl)c1ccc(F)cc1 |  | inconclusive: -9.09%
8 | COc1ccccc1C(=O)NC(=S)N1CCCc2ccccc21 |  | inactive: 4.36%
9 | Cc1ccc(S(=O)(=O)NCCCNS(=O)(=O)c2ccccc2[N+](=O)[O-])cc1 |  | inactive: -14.4%
10 | O=C(CC(C(=O)c1ccccc1)c1ccccc1)c1ccccc1 (stereo not drawn) | inconclusive: 18.4 µM [cytotoxic, single point] | 
11 | Cc1ccc(S(=O)(=O)N(C)/N=C2/C(=O)N(CC(=O)O)c3ccccc32)cc1 |  | inactive: 11.4%
12 | O=C(Nc1ccc(F)cc1)c1sccc1SCc1cccc(C(F)(F)F)c1 | inconclusive: 29.1 µM [cytotoxic, single point] | 
13 | O=[N+]([O-])c1ccc(N2CCN(C(=S)c3cccc([N+](=O)[O-])c3)CC2)cc1 |  | inactive: -10.4%
14 | COc1cccc(C(O)c2nc(-c3cc(F)cc(F)c3)cs2)c1 (stereo not drawn) |  | inactive: 6.33%
15 | COc1ccc(CCNc2nnc(Sc3nnnn3-c3ccccc3)s2)cc1OC | active: 14.6 µM | 
16 | Cc1cc(C(=O)c2cnc(/N=C/N(C)C)s2)c(F)cc1Cl | inconclusive: 20.6 µM [cytotoxic, partial curve] | 
17 | O=C(NCCOc1ccccc1)N1[C@H]2CC[C@@H]1C=C(c1ccc(F)cc1OCc1ccccc1)C2 | inconclusive: 29.1 µM [cytotoxic, single point] | 
18 | Cc1noc(C)c1C(=O)OC(C)C(=O)c1c[nH]c2ccccc12 (stereo not drawn) | inconclusive: 20.6 µM [cytotoxic, single point] | 
19 | COc1ccc(C(=O)Nc2ccc(S(=O)(=O)N3CCCC3)cc2)cc1 | inconclusive: 29.1 µM [cytotoxic, single point] | 
20 | Brc1ccccc1OCCCCCN1CCOCC1 | inconclusive: 16.4 µM [cytotoxic, single point] | 
21 | Cc1ccc(Cn2c(=O)oc3ccccc32)cc1 | inconclusive: 4.61 µM [rising, partial curve, poor fit] | 
22 | C/C(=N\NC(=S)NC(C)C)c1ccc(C(C)(C)C)cc1 | inconclusive: 29.1 µM [cytotoxic, single point] | 

3 compounds already listed, ordered by count of non-hydrogen atoms, largest number first.
Row | Compound | Potency | activity change, negative = cytotoxicity
1 | COc1cccc(NC(=O)NCc2ccc3c(c2)CCN3C(=O)c2ccccc2)c1 | inconclusive: 2.59 µM [cytotoxic, partial curve, poor fit] | 
9 | Cc1ccc(S(=O)(=O)NCCCNS(=O)(=O)c2ccccc2[N+](=O)[O-])cc1 |  | inactive: -14.4%
7 | O=C(NNC(=O)c1ncc(Cl)c(Cl)c1Cl)c1ccc(F)cc1 |  | inconclusive: -9.09%

Additional compounds:

Row | Compound | Potency | activity change, negative = cytotoxicity
23 | CCN1CCC(O)(/C=C/c2ccc(C(C)C)cc2)C(C(=O)/C=C/c2ccc(C(C)C)cc2)C1 (stereo not drawn) | inconclusive: 20.6 µM [cytotoxic, single point] | 
24 | Cc1ccc(C)c(CSc2nnc(-c3cccnc3)o2)c1 | active: 18.4 µM | 
25 | CCn1ncc(C2=NOC(C(=O)Nc3cccc(C(C)=O)c3)C2)c1C (stereo not drawn) | active: 18.4 µM | 
26 | CCCCn1c(N)c(N(CCOC)C(=O)COC(=O)c2ccccc2NCCO)c(=O)[nH]c1=O | inconclusive: 25.9 µM [rising, partial curve, poor fit] | 
27 | N#C/C(=C\c1ccc(O)c(O)c1)C(=O)Nc1ccccc1 | inconclusive: 16.4 µM [cytotoxic, single point] | 
28 | CN(C)c1ccc(CNC(=O)C2(C)Cc3c(-c4ccc5c(c4)OCO5)ccnc3O2)cc1 (stereo not drawn) | active: 11.6 µM | 
29 | CCCCCCCCCCCCCCCC[n+]1ccc(/C=C/c2c[nH]c3ccccc23)c2ccccc21 | inconclusive: 29.1 µM [cytotoxic, single point] | 
30 | Cc1nc2ccc(NC(=O)c3ccccc3)cc2c(=O)n1Cc1ccc(F)cc1 | inconclusive: 5.17 µM [cytotoxic, partial curve] | 
31 | COc1cc(/C=C/C(=O)OCC(=O)NC(=O)NC(C)C)ccc1O | inconclusive: 3.66 µM [cytotoxic, partial curve, poor fit] | 
32 | CCOC(=O)C1(CCCc2ccccc2)CCN(C(=O)C2=C(C)OCCO2)CC1 | inconclusive: 18.4 µM [cytotoxic, partial curve, poor fit] | 
33 | COc1ccccc1CN(C)C(=O)CSCC(=O)Nc1ccccc1F |  | inactive: 0%
34 | Cc1ccc(-c2nnc(SCC(=O)NCCC(C)C)nc2-c2ccc(C)cc2)cc1 |  | inactive: -13.4%
35 | CCn1cc(C(=O)NCCCN(CC(C)C)CC(C)C)c(=O)c2cc(S(=O)(=O)N3CCc4ccccc4C3)ccc21 | inconclusive: 11.6 µM [rising, partial curve, poor fit] | 
36 | CCOC(=O)C1CCCCN1S(=O)(=O)c1ccc2c(c1)CC(C)N2C(=O)C1CCC1 (stereo not drawn) |  | inactive: -5.38%
37 | CC(C)(CO)CNC(=O)CC1C(=O)NCCN1CC(c1ccccc1)c1ccccc1 (stereo not drawn) | inconclusive: 0.0103 µM [rising, full curve, poor fit] | 
38 | COc1ccc(C(=O)NCC(=O)N2CCN(c3ccccc3)CC2)cc1 | inconclusive: 8.2 µM [cytotoxic, partial curve] | 
39 | NC(=O)CSc1nc(C2CC2)nc2sc3c(c12)CCCC3 | inconclusive: 0.0052 µM [rising, full curve, poor fit] | 
40 | CN(CC(=O)Nc1ccc2c(c1)OCCO2)Cc1nc2ccccc2c(=O)[nH]1 | inconclusive: 18.4 µM [rising, single point] | 
41 | O=c1c2ccccc2nc(COc2ccccc2)n1/N=C/c1c[nH]c2ccccc12 | inconclusive: 1.46 µM [cytotoxic, full curve] | 
42 | Cc1ccc(NC(=O)COC(=O)c2cccc3c2C(=O)c2ccccc2C3=O)c(C)c1 | inconclusive: 9.2 µM [cytotoxic, partial curve, poor fit] | 
43 | COc1ccc([C@@]23Oc4cc(OC)cc(OC)c4[C@]2(O)[C@H](O)[C@H](C(=O)N(C)C)[C@H]3c2ccccc2)cc1 | inconclusive: 0.184 µM [cytotoxic, full curve, poor fit] | 
